Some of the results follow. Single values are uncertain, as repeats are few or missing.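 The apoptosis fraction was the count of cleaved-PARP antibody-stained nuclei relative to all DNA-stained nuclei, imaged in 1,536-well plates. Screening doses were set so most cells survived, and baseline and induced cleaved-PARP levels vary greatly across cell lines.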
Tests used:
Experiment in all cases: cleaved PARP positive nuclei fraction relative to DMSO control; melanoma cells; higher = more apoptosis
Settings in all cases: library dose: low library concentration; 72 h
501Mel = system: 501Mel
A101D = system: A101D
A2058 = system: A2058
C32 = system: C32
CBRC008 = system: CBRC008 (line from a melanoma biopsy)
CBRC014 = system: CBRC014 (line from a melanoma biopsy)
CBRC016 = system: CBRC016 (line from a melanoma biopsy)
CBRC017 = system: CBRC017 (line from a melanoma biopsy)
COLO792 = system: COLO792
COLO800 = system: COLO800
COLO829 = system: COLO829
G361 = system: G361
IPC-298 = system: IPC-298
IST-MEL1 = system: IST-MEL1
LB2518-MEL = system: LB2518-MEL
LOXIMVI = system: LOXIMVI

Row | Compound | cleaved PARP positive nuclei fraction (501Mel) | cleaved PARP positive nuclei fraction (A101D) | cleaved PARP positive nuclei fraction (A2058) | cleaved PARP positive nuclei fraction (C32) | cleaved PARP positive nuclei fraction (CBRC008) | cleaved PARP positive nuclei fraction (CBRC014) | cleaved PARP positive nuclei fraction (CBRC016) | cleaved PARP positive nuclei fraction (CBRC017) | cleaved PARP positive nuclei fraction (COLO792) | cleaved PARP positive nuclei fraction (COLO800) | cleaved PARP positive nuclei fraction (COLO829) | cleaved PARP positive nuclei fraction (G361) | cleaved PARP positive nuclei fraction (IPC-298) | cleaved PARP positive nuclei fraction (IST-MEL1) | cleaved PARP positive nuclei fraction (LB2518-MEL) | cleaved PARP positive nuclei fraction (LOXIMVI)
1 | O=C(/C=C/c1cccnc1)NCCCCC1CCN(C(=O)c2ccccc2)CC1 + O=S(=O)(c1ccccc1)N(CC(F)(F)F)c1ccc(C(O)(C(F)(F)F)C(F)(F)F)cc1 [T0901317] (first compound 0.01 µM, partner dose 1.4 µM) | 87.3% | 68.8% | 119% | 279% | 1900% | 117% | 957% | 365% | 355% | 93.9% | 174% | 1400% | 152% | 175% | 42.9% | 102%
2 | O=C(Nc1cc(C(F)(F)F)cc(C(F)(F)F)c1)c1cc(Cl)ccc1O + COC(=O)c1sccc1S(=O)(=O)Nc1ccc(Nc2ccccc2)cc1OC [GSK0660] (first compound 0.016 µM, partner dose 1 µM) | 118% | 20% | 67.8% | 131% | 102% | 92.1% | 120% | 96.2% | 129% | 107% | 68.2% | 73.2% | 29.5% | 147% | 65.9% | 138%
3 | Cc1cc(Nc2cc(N3CCN(C)CC3)nc(Sc3ccc(NC(=O)C4CC4)cc3)n2)n[nH]1 [Tozasertib] + Oc1nc(-c2ccc(C(F)(F)F)cc2)nc2c1CSCC2 [XAV939] (first compound 0.006 µM, partner dose 2 µM) | 129% | 31.9% | 96.4% | 102% | 301% | 89.5% | 63.1% | 86.1% | 165% | 138% | 87.8% | 123% | 31.3% | 112% | 53.4% | 124%
4 | COc1cc([C@@H]2c3cc4c(cc3[C@@H](O[C@@H]3O[C@@H]5CO[C@@H](C)O[C@H]5[C@H](O)[C@H]3O)[C@H]3COC(=O)[C@H]23)OCO4)cc(OC)c1O [etoposide] + COc1cc2ncnc(Nc3ccc(Oc4ccccc4)cc3)c2cc1OC [SrcI1] (first compound 0.02 µM, partner dose 2 µM) | 92.2% | 45.5% | 155% | 173% | 243% | 82.7% | 63.5% | 120% | 78.5% | 103% | 72.4% | 14.6% | 68.7% | 90.8% | 69.6% | 63.2%
5 | N#CC[C@H](C1CCCC1)n1cc(-c2ncnc3[nH]ccc23)cn1 [ruxolitinib] + CC(C)CCN1c2nc(Nc3cc(F)c(O)c(F)c3)ncc2N(C)C(=O)C1C [BID1870] (first compound 1 µM, partner dose 0.2 µM) | 85.6% | 33.8% | 175% | 77.6% | 223% | 130% | 195% | 145% | 50.2% | 166% | 127% | 135% | 101% | 106% | 104% | 438%
6 | O=C(Nc1cc(C(F)(F)F)cc(C(F)(F)F)c1)c1cc(Cl)ccc1O + c1cc(-c2cnn3cc(-c4ccc(OCCN5CCCCC5)cc4)cnc23)ccn1 [Dorsomorphin] (first compound 0.016 µM, partner dose 0.4 µM) | 94.4% | 25.2% | 32.7% | 38.6% | 116% | 96.5% | 42.5% | 99.1% | 117% | 88% | 129% | 85.2% | 30.2% | 97.5% | 61.4% | 63.4%
7 | CCCCCCCCCCCCCCCCCCOP(=O)([O-])OC1CC[N+](C)(C)CC1 [Perifosine] + COc1cc2ncnc(Nc3ccc(Oc4ccccc4)cc3)c2cc1OC [SrcI1] (first compound 0.4 µM, partner dose 2 µM) | 99.4% | 16.1% | 149% | 87.4% | 155% | 147% | 81.2% | 118% | 83.2% | 50.6% | 48.5% | 109% | 98.1% | 133% | 61% | 116%
8 | O=c1[nH]nc(Sc2ncc([N+](=O)[O-])s2)n1-c1ccc2c(c1)OCCO2 + COC(=O)c1sccc1S(=O)(=O)Nc1ccc(Nc2ccccc2)cc1OC [GSK0660] (first compound 0.2 µM, partner dose 1 µM) | 66% | 35.2% | 50.8% | 130% | 147% | 135% | 89.8% | 75.6% | 127% | 99.1% | 125% | 81.2% | 135% | 237% | 54% | 102%
9 | Cc1cc(Nc2cc(N3CCN(C)CC3)nc(Sc3ccc(NC(=O)C4CC4)cc3)n2)n[nH]1 [Tozasertib] + COc1cc2ncnc(Nc3ccc(Oc4ccccc4)cc3)c2cc1OC [SrcI1] (first compound 0.006 µM, partner dose 2 µM) | 91.5% | 29.4% | 56% | 165% | 275% | 91% | 30.5% | 116% | 111% | 53.8% | 148% | 92.7% | 102% | 107% | 59.2% | 140%
